From article PMC4257004
No constants are given. Whether binding was seen depends on the method and setting. In cells and extracts the contact can be indirect. Binding calls can cover weak binding; strength is not graded here.

Amino acid sequences for entries named in this document (tags omitted).
UniProt Q9VDJ9: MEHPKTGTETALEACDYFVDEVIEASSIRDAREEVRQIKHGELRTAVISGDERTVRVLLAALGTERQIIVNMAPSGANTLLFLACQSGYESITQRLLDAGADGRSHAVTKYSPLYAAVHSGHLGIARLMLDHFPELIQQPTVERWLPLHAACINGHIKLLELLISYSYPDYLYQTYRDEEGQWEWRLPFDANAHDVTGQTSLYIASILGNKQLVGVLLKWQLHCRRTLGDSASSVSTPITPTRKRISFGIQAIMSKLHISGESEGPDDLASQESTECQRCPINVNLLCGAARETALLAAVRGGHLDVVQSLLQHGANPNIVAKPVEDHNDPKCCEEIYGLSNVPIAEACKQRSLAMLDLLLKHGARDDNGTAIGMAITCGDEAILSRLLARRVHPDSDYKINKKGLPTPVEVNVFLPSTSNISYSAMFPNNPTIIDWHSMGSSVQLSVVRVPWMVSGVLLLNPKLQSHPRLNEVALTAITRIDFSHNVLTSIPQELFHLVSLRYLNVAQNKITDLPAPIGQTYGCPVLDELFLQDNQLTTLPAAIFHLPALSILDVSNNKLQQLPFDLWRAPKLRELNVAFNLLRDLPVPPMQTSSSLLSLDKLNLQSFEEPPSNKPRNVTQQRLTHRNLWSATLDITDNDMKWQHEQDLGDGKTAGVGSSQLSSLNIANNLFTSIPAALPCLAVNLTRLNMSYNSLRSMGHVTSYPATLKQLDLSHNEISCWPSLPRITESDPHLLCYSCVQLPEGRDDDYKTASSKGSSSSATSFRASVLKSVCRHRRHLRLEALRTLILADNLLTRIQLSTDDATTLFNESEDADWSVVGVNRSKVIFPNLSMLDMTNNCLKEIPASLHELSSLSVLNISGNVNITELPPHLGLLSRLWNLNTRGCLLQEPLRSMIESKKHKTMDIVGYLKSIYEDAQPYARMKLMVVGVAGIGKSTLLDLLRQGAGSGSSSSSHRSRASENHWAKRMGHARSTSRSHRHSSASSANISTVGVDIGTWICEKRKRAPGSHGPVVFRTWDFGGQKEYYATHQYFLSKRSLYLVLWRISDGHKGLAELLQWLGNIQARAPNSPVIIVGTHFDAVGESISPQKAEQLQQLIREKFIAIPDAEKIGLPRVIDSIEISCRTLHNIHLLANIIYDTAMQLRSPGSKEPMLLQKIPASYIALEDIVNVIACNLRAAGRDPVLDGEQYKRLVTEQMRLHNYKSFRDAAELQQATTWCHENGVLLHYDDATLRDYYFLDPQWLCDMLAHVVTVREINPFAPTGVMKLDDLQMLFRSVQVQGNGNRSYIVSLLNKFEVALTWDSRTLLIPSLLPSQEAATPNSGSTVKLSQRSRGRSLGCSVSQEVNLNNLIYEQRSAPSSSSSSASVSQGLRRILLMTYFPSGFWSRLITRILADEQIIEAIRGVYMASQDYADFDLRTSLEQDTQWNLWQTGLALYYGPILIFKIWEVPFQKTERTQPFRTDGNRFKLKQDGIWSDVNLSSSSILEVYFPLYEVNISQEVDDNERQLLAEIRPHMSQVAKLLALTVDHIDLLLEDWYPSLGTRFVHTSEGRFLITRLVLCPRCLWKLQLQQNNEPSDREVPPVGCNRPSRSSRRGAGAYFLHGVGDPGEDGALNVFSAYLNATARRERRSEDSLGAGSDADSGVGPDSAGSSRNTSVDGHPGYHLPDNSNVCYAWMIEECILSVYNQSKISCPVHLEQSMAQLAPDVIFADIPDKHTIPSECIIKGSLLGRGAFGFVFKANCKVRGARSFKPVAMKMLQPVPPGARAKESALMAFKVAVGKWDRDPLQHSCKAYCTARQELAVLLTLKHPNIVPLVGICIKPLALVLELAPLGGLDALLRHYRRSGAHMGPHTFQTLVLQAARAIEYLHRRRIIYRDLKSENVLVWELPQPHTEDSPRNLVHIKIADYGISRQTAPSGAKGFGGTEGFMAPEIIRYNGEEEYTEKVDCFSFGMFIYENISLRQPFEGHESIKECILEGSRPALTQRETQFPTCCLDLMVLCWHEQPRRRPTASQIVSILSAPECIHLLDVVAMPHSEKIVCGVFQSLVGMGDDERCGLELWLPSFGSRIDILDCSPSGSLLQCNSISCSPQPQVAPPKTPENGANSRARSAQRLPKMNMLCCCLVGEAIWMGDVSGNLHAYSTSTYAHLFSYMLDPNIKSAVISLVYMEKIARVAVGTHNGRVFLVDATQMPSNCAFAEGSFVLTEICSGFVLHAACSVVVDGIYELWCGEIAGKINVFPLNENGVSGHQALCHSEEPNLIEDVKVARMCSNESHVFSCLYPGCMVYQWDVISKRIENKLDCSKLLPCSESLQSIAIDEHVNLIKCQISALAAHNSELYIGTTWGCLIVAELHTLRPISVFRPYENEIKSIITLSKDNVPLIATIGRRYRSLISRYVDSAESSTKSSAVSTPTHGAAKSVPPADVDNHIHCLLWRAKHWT

Molecular target: Rab9-YFP (Drosophila) (UniProt Q9VIW6)
Test: co-IP; lysates of transiently transfected Drosophila S2 cells in RIPA buffer with protease inhibitors; Dynabeads with rabbit anti-GFP or mouse anti-Myc; western blot with anti-Myc and anti-GFP

binding: binds
Substance: Drosophila Lrrk, 9myc-tagged (pMT-lrrk-9myc) (from UniProt Q9VDJ9 1-2445)
